Experimental data taken from US4204065A, “Soft quaternary surface active agents and method of using same” (Interx Research Corporation, priority 1978, dated 1980).

Columns and labels:
mouse = details: oral vs IP; cited from earlier work
S. typhimirum = test: Minimal inhibitory concentration (MIC), S. typhimirum; assay type: cell-based; details: pH 7, read-out: Minimal inhibitory concentration (MIC), S. typhimirum

In the case of `CCCCCCCCCCCCCCCC[n+]1ccccc1` [Compound 1, cetylpyridinium chloride], the “LD50 via oral versus I.P. administration” value (mouse) is listed as “substantially greater” and the MIC (S. typhimirum) is listed as 8 µg/mL.
